Assay [1] addresses T1, GST Mint1 PTB (human) (UniProt Q02410).
T1 sequence: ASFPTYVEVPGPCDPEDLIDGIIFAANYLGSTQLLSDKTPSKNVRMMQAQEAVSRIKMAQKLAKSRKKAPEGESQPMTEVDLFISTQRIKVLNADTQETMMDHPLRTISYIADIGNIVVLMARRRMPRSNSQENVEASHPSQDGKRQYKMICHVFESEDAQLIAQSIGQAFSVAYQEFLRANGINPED
As to the kind of experiment: pull-down; 5 µg GST or GST Mint1 fusion proteins on glutathione Sepharose 4B beads, MEF dko APP695 AA12 cell lysates (20 x input), 1.5 h at 4°C, pulldown buffer; anti-APP C-terminus blot; only the target purified.

Assay [2] addresses T1, GST Mint1 PTB (human). Kind of assay: pull-down; data not shown: GST Mint1 826 PTB or GST Mint1 PTB with lysate from CHO cells transfected with pEGFP APP695, lysed 48 h after transfection; only the target purified.

These are yes or no findings as the source states them, for the method shown. In cells and extracts the contact can be indirect. Some binding calls cover weakened binding; strength is not graded here. Tags and fused reporters may be left off the sequences shown.

As to “APP695 from MEF dKO APP695 cell lines (from UniProt P05067-4 18-695)”, the binding entry in assay [1] is listed as “binds”.
For “EGFP APP695 from transfected CHO cells (from UniProt P05067-4 18-695)”, the binding entry in assay [2] was “binds”.
